In patent publication US8835379B2, “Derivatives of CGRP” (Novo Nordisk A/S, priority 2009, dated 2014):
For part of these data: At least one peptide structure holds a part that was inferred or is arguable (an end, a ring closure or a residue). For part of these data: At least one structure is not confirmed: it was looked up by name or label, or the drawing left a doubt.

Sequences of proteins named here, by UniProt entry; tags and fusion partners are left off. Residues count along the entry.
UniProt O60894, 27-148, species assumed: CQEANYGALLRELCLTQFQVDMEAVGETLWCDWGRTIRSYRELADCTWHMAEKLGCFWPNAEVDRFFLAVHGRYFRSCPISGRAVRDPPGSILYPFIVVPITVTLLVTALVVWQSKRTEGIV
UniProt Q16602, 23-461, species assumed: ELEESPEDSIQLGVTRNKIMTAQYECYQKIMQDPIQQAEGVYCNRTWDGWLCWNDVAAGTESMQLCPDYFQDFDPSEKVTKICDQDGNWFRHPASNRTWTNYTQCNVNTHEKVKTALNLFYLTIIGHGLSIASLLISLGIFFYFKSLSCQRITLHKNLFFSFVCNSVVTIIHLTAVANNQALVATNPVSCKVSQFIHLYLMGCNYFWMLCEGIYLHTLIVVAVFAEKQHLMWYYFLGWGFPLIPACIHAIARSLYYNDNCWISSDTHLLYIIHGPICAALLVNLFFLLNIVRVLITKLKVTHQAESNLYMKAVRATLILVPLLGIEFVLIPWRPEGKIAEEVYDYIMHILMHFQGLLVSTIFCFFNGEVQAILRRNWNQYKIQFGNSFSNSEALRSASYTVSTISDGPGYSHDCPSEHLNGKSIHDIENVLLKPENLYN

Assays:
[1] = molecular target: CGRP receptor (calcitonin receptor-like receptor (CRLR), receptor activity modifying protein-1 (RAMP1)) (Homo sapiens, UniProt O60894+Q16602); test: CGRP-induced cAMP accumulation in CGRP receptor expressing cells (CHO, CRE luciferase reporter); type: cell-based; details: in vitro potency, 4 hours
Description: Chinese hamster ovary (CHO) cells were stably transfected with calcitonin receptor-like receptor (CRLR), receptor activity modifying protein-1 (RAMP1) and CRE luciferase (cAMP responsive element for control of luciferase gene expression). Luciferase is a reporter-gene reporting accumulation of intracellular cAMP).
Cells were cultured in F12 media supplemented with GlutaMAX™ (Gibco cat no 31765-027), FBS (10%, Gibco 16140-071), Penicillin-streptomycin (1%, Lonza DE-17-602E), G418 (400 μg/ml, Gibco 10131-027), Blasticidine (10 μg/ml, Corning cat no 15205), Hygromycin (400 μg/ml, Calbiochem cat no 400052).
Cells were seeded in a 96 well plate (Packard #6005180), 20000 cells/well in 100 μl media on the day before experimentation. On the day of experimentation media was replaced by assay medium (Dulbecco's media w/o phenol red (Gibco cat no 11880-028) supplemented with 10% FBS (10%, Gibco 16140-071), Hepes (10 mM, Gibco cat no 15630), GlutaMAX™ (2 mM, Gibco cat no 35050), 50 μl/well. […]
Assay medium and peptides were replaced by phosphate buffered saline (PBS, Gibco cat no 14040-091), 100 μl/well and LucLite™ (PerkinElmer, cat no 6076759), 100 μl/well were added. […] Luciferase activity (luminescens, 7 s/well) was measured (TopCount®, NXT, Packard).
Dose-response curves were fitted by use of GraphPad Prism software and pEC50 values were calculated. […]

[2] = CGRP-induced reduction in food intake by automatic food intake measurements (FeedWin); type: in vivo, Sprague Dawley (SD) rats; details: SD rats, i.p., monitored for 48 hours, FIG. 5
Excerpt: Upon arrival male Sprague Dawley (SD) rats were housed two per cage with a dividing wall between them. They were housed at reversed diurnal rhythm and with environmental enrichment. The rats were acclimatized to reversed diurnal rhythm for at least 1 week before being transferred to the experimental system cages (single housed). They were acclimatized to the experimental system cages for an additional 5-6 days before start of the experiment. The rats had ad libitum access to food (Altromin 1324) and water during acclimatization periods.
One day before start of the study the rats were divided in three or four groups (n=5-8) based on body weight (250-300 g).
16 hours before start of the study the rats were fasted. Food was returned in connection with dosing. The rats received a single injection subcutaneously (s.c., 1 ml/kg) with vehicle or CGRP analogue. Intraperitoneally dosing (i.p., 1 ml/kg) was used in the first experiment of the al analogue. The effect of analogues on food and water consumption was examined in a “FeedWIN” system (Ellegaard Systems A/S, Faaborg, Denmark). The system contained 32 stations. In each station the continuous water and food consumption for a single rat was recorded.
A station consisted of a cage with metal lid and two scales placed on each side of the cage. […] Data was collected each 15 minutes and up to 48 hours and expressed as accumulated food intake (Mean±SEM).

Compound | EC50 [1] [pM] | accumulated food intake [2]
CC(C)C[C@H](NC(=O)CNC(=O)[C@H](C)NC(=O)[C@H](CC(C)C)NC(=O)[C@H](CCCNC(=N)N)NC(=O)[C@H](Cc1c[nH]cn1)NC(=O)[C@@H](NC(=O)[C@@H](NC(=O)[C@@H]1CSSC[C@H](NC(=O)[C@@H](N)CO)C(=O)N[C@@H](CC(N)=O)C(=O)N[C@@H]([C@@H](C)O)C(=O)N[C@@H](C)C(=O)N[C@@H]([C@@H](C)O)C(=O)N1)C(C)C)[C@@H](C)O)C(=O)N[C@@H](CC(C)C)C(=O)N[C@@H](CO)C(=O)N[C@@H](CCCNC(=N)N)C(=O)N[C@@H](CO)C(=O)NCC(=O)NCC(=O)N[C@H](C(=O)N[C@H](C(=O)N[C@@H](CCCCN)C(=O)N[C@@H](CC(=O)O)C(=O)N[C@@H](CC(N)=O)C(=O)N[C@@H](Cc1ccccc1)C(=O)N[C@H](C(=O)N1CCC[C@H]1C(=O)N[C@H](C(=O)N[C@@H](CC(N)=O)C(=O)N[C@H](C(=O)NCC(=O)N[C@@H](CO)C(=O)N[C@@H](CCC(=O)O)C(=O)N[C@@H](C)C(=O)N[C@@H](Cc1ccccc1)C(N)=O)C(C)C)[C@@H](C)O)C(C)C)C(C)C)C(C)C [CGRP-alpha, reference compound] | 5 | 
CC(C)C[C@H](NC(=O)CNC(=O)[C@H](C)NC(=O)[C@H](CC(C)C)NC(=O)[C@H](CCCNC(=N)N)NC(=O)[C@H](Cc1c[nH]cn1)NC(=O)[C@@H](NC(=O)[C@@H](NC(=O)[C@@H]1CSSC[C@H](NC(=O)[C@@H](N)CO)C(=O)N[C@@H](CC(N)=O)C(=O)N[C@@H]([C@@H](C)O)C(=O)N[C@@H](C)C(=O)N[C@@H]([C@@H](C)O)C(=O)N1)C(C)C)[C@@H](C)O)C(=O)N[C@@H](CC(C)C)C(=O)N[C@@H](CO)C(=O)N[C@@H](CCCNC(=N)N)C(=O)N[C@@H](CO)C(=O)NCC(=O)NCC(=O)N[C@H](C(=O)N[C@H](C(=O)N[C@@H](CCCCN)C(=O)N[C@@H](CC(=O)O)C(=O)N[C@@H](CC(N)=O)C(=O)N[C@@H](Cc1ccccc1)C(=O)N[C@H](C(=O)N1CCC[C@H]1C(=O)N[C@H](C(=O)N[C@@H](CC(N)=O)C(=O)N[C@H](C(=O)NCC(=O)N[C@@H](CO)C(=O)N[C@@H](CCCCN)C(=O)N[C@@H](C)C(=O)N[C@@H](Cc1ccccc1)C(N)=O)C(C)C)[C@@H](C)O)C(C)C)C(C)C)C(C)C [CGRP-beta, reference compound] | 9 | 
CC(C)C[C@H](NC(=O)CNC(=O)[C@H](C)NC(=O)[C@H](CC(C)C)NC(=O)[C@H](CCCNC(=N)N)NC(=O)[C@H](Cc1c[nH]cn1)NC(=O)[C@@H](NC(=O)[C@@H](NC(=O)[C@@H]1CSSC[C@H](NC(=O)[C@H](CO)NC(=O)COCCOCCNC(=O)CC[C@H](NC(=O)CCCCCCCCCCCCCCCCC(=O)O)C(=O)O)C(=O)N[C@@H](CC(=O)O)C(=O)N[C@@H]([C@@H](C)O)C(=O)N[C@@H](C)C(=O)N[C@@H]([C@@H](C)O)C(=O)N1)C(C)C)[C@@H](C)O)C(=O)N[C@@H](CC(C)C)C(=O)N[C@@H](CO)C(=O)N[C@@H](CCCNC(=N)N)C(=O)N[C@@H](CO)C(=O)NCC(=O)NCC(=O)N[C@H](C(=O)N[C@H](C(=O)N[C@@H](CCCCN)C(=O)N[C@@H](CC(N)=O)C(=O)N[C@@H](CC(N)=O)C(=O)N[C@@H](Cc1ccccc1)C(=O)N[C@H](C(=O)N1CCC[C@H]1C(=O)N[C@H](C(=O)N[C@@H](CC(N)=O)C(=O)N[C@H](C(=O)NCC(=O)N[C@@H](CO)C(=O)N[C@@H](CCCCN)C(=O)N[C@@H](C)C(=O)N[C@@H](Cc1ccccc1)C(N)=O)C(C)C)[C@@H](C)O)C(C)C)C(C)C)C(C)C [Analogue alpha 1, N-alpha-[2-(2-{2-[(S)-4-Carboxy-4-(17-carboxyheptadecanoylamino)butyrylamino]ethoxy}ethoxy)acetyl][Ser1]alpha-human CGRP peptide] |  | Reduction in accumulated food intake
